Experimental findings from patent US20230279123A1 are described below.

Sequences of proteins named here, by UniProt entry; tags and fusion partners are left off. Residues count along the entry.
UniProt P24394, residues 26-232: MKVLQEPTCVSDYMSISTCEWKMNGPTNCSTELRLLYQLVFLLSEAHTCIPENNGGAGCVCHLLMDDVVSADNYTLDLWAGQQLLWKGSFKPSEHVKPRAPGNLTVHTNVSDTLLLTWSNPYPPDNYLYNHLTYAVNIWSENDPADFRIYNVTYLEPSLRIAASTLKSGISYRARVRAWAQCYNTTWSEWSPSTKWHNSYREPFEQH

These are yes or no findings as the source states them, for the method shown. Some results given as binding are weak or reduced against the parent protein; the word gives no strength.

This experiment has as its target IL-4Rα (receptor protein / antigen) (UniProt P24394). Nature of the experiment: BLI (Octet 96). In general terms: In BLI a coated tip is dipped into the sample, and binding shifts an interference pattern.

B1: humanized anti-IL-4Rα single domain antibody 4E9-V6 (VHH)
VHH: QVQLVESGGGLVQPGGSLRLSCAASGDFYCMAWFRQAPGKEREAVATIRSGGRSTYYADSVKGRFTISRDNSKNTLYLQMNSLKAEDTAVYYCAVGVDGNCRNYWGQGTLVTVSS
For B1, the binding result is listed as “binds”.

B2: humanized anti-IL-4Rα single domain antibody 4E9-V10 (VHH)
VHH: QVQLVESGGGLVQPGGSLRLSCAASGDFYCMAWFRQAPGKEREAVAAIRSGGRSTYYADSVKGRFTISRDNSKNTLYLQMNSLKAEDTAVYYCAVGVDGNCRNYWGQGTLVTVSS
Turning to B2, the binding result was “binds”.
